# Measured values taken from PubChem BioAssay AID248 (DTP/NCI, 2004).
# The list does not hold the whole screen: it gathers tests that were run many times, whatever their T/C, doses with no T/C, and many T/C values between a quarter and a half above the control. Other doses and runs of a compound stand elsewhere. T/C gives the treated animals as a percentage of the vehicle group. Some doses have a count of surviving animals in place of a T/C: the source files T/C as zero there, which appears to mark a toxic dose or a test without result, not a measured value. Some doses without a T/C left all or most animals alive at the check, yet need not have been tolerated: survival well below the control is almost never listed, so the zero probably covers shortened survival too. Counts of survivors are from the toxicity check (mostly the fifth day) where no day follows; animals may have died later. Schedules are NCI's codes, taken here to give the interval after Q, in days (D) or hours (H), and the number of doses after X. Some doses were run more than once; the results are listed from low to high. Some schedules carry Z or #; the key to these is not given. For survival time, this PubChem deposit counts one and a half times the control or more as active, and values a quarter to a half above the control carry no call in these data; other NCI protocols may use other cut-offs.
# Tested on: L1210 leukemia ip in BDF1 mice, survival T/C
# Experiment: NCI In Vivo Anticancer Drug Screen. Data for tumor model L1210 Leukemia (intraperitoneal) in B6D2F1 (BDF1) mice
# Conditions: T/C endpoint: mean survival time, higher T/C = longer survival
# [1] = dose: 50.0 mg/kg/injection, schedule: Q01DX001 (ip), vehicle: carboxymethylcellulose (CMC)
# [2] = dose: 100.0 mg/kg/injection, schedule: Q01DX001 (ip), vehicle: other
# [3] = dose: 100.0 mg/kg/injection, schedule: Q04DX003 (ip), vehicle: saline
# [4] = dose: 200.0 mg/kg/injection, schedule: Q01DX001 (ip), vehicle: other
# [5] = dose: 400.0 mg/kg/injection, schedule: Q01DX001 (ip), vehicle: other
# [6] = dose: 200.0 mg/kg/injection, schedule: Q04DX002 (ip), vehicle: Klucel (hydroxypropylcellulose) (HPC)
# [7] = dose: 400.0 mg/kg/injection, schedule: Q04DX002 (ip), vehicle: Klucel (hydroxypropylcellulose) (HPC)
# [8] = dose: 400.0 mg/kg/injection, schedule: Q04DX003 (ip), vehicle: saline
# [9] = dose: 200.0 mg/kg/injection, schedule: Q04DX003 (ip), vehicle: saline with Tween-80
# [10] = dose: 400.0 mg/kg/injection, schedule: Q04DX003 (ip), vehicle: saline with Tween-80
# [11] = dose: 400.0 mg/kg/injection, schedule: Q04DX003 (ip), vehicle: Klucel (hydroxypropylcellulose) (HPC)
smiles,measurement,setting,value
C=C1CC(C)(C)C(c2ccccc2)OC1=O (stereo not drawn),survivor count,"dose: 400.0 mg/kg/injection, schedule: Q01DX001 (ip), vehicle: saline with Tween-80",0 of 3
COC(=O)[C@H]1[C@H]2C[C@@H]3c4[nH]c5cc(OC)ccc5c4CCN3C[C@H]2C[C@@H](OC(=O)c2cc(OC)c(OC)c(OC)c2)[C@@H]1OC,survivor count,"dose: 10.5 mg/kg/injection, schedule: Q01DX009 (ip), vehicle: other",4 of 6
same,survivor count,"dose: 12.5 mg/kg/injection, schedule: Q01DX009 (ip), vehicle: saline with Tween-80",6 of 6
same,survivor count,"dose: 21.0 mg/kg/injection, schedule: Q01DX009 (ip), vehicle: other",5 of 6
same,survivor count,"dose: 25.0 mg/kg/injection, schedule: Q01DX001 (ip), vehicle: carboxymethylcellulose (CMC)",6 of 6
same,survivor count,"dose: 25.0 mg/kg/injection, schedule: Q01DX009 (ip), vehicle: saline with Tween-80",6 of 6
same,survivor count,"dose: 29.0 mg/kg/injection, schedule: Q04DX003 (ip), vehicle: carboxymethylcellulose (CMC)",6 of 6
same,survivor count,"dose: 45.0 mg/kg/injection, schedule: Q04DX003 (ip), vehicle: carboxymethylcellulose (CMC)",5 of 6
same,survivor count,[1],6 of 6
same,survivor count,"dose: 50.0 mg/kg/injection, schedule: Q01DX009 (ip), vehicle: saline with Tween-80",6 of 6
same,survivor count,"dose: 50.0 mg/kg/injection, schedule: Q04DX003 (ip), vehicle: saline",4 of 4
same,survivor count,"dose: 65.0 mg/kg/injection, schedule: Q04DX003 (ip), vehicle: carboxymethylcellulose (CMC)",4 of 6
same,survivor count,[2],1 of 4
same,survivor count,[3],3 of 4
same,survivor count,[4],2 of 4
same,survivor count,[5],0 of 4
CC(C)NC(=O)C1CC2c3cccc4c3c(cn4CN(C)C)CC2N(C)C1 (stereo not drawn),T/C,"dose: 50.0 mg/kg/injection, schedule: Q04DX002 (ip), vehicle: saline",125 % of control
CCCCCCCCCCCCCCCCCCNc1ccc(C(=O)OCC)cc1,survivor count,"dose: 150.0 mg/kg/injection, schedule: Q01DX001 (ip), vehicle: saline",6 of 6
COc1ccc([N+](=O)[O-])cc1NC(=O)c1ccc2c(c1)C(=O)OC2=O,survivor count,"dose: 25.0 mg/kg/injection, schedule: Q01DX009 (ip), vehicle: gum acacia",6 of 6
same,survivor count,"dose: 100.0 mg/kg/injection, schedule: Q01DX009 (ip), vehicle: gum acacia",6 of 6
same,survivor count,"dose: 400.0 mg/kg/injection, schedule: Q01DX009 (ip), vehicle: gum acacia",6 of 6
CC1(C(Cl)(Cl)Cl)C=CC(O)C=C1 (stereo not drawn),survivor count,[6],3 of 3
same,survivor count,"dose: 225.0 mg/kg/injection, schedule: Q01DX009 (ip), vehicle: Klucel (hydroxypropylcellulose) (HPC)",3 of 6
same,survivor count,"dose: 335.0 mg/kg/injection, schedule: Q01DX009 (ip), vehicle: Klucel (hydroxypropylcellulose) (HPC)",4 of 6
same,survivor count,[7],3 of 3
CCN(CC)CC(=O)NCC(CC)(CCN(C)C)c1cccc2ccccc12 (stereo not drawn),survivor count,"dose: 400.0 mg/kg/injection, schedule: Q01DX009 (ip), vehicle: saline",0 of 6
same,survivor count,[8],1 of 6
CC(C)C(C(=O)O)N(C)N=O (stereo not drawn),survivor count,"dose: 400.0 mg/kg/injection, schedule: Q01DX001 (ip), vehicle: acetone",2 of 6
O=C(O)Cc1cccc(S(=O)(=O)F)c1,survivor count,[9],6 of 6
same,survivor count,"dose: 400.0 mg/kg/injection, schedule: Q04DX002 (ip), vehicle: saline with Tween-80",1 of 6
same,survivor count,[10],0 of 6
CC(C)(C)OC(=O)C(=O)C(OC(C)(C)C)C(=O)OC(C)(C)C (stereo not drawn),survivor count,"dose: 400.0 mg/kg/injection, schedule: Q01DX001 (ip), vehicle: saline",3 of 6
O=C(NC/C=C/Br)Nc1cnc2ccccc2c1,survivor count,[9],0 of 6
same,survivor count,[10],0 of 6
O=[N+]([O-])C=C([SH2+])[SH2+].O=[N+]([O-])C=C([SH2+])[SH2+].[Co+3].c1ccc(C[P+](c2ccccc2)(c2ccccc2)c2ccccc2)cc1,survivor count,"dose: 300.0 mg/kg/injection, schedule: Q04DX003 (ip), vehicle: saline",1 of 6
C/C=C/C=C/COC(=O)CCCCCCC,T/C,"dose: 100.0 mg/kg/injection, schedule: Q04DX002 (ip), vehicle: saline",125 % of control
COC1OC2COc3ccccc3OC2C2C1N2C(C)=O (stereo not drawn),T/C,[7],128 % of control
CC(=O)Oc1c(F)c(F)c(F)c(F)c1F,T/C,"dose: 12.5 mg/kg/injection, schedule: Q04DX002 (ip), vehicle: saline with Tween-80",143 % of control
COc1ccccc1NC(=O)c1ccccc1,survivor count,"dose: 200.0 mg/kg/injection, schedule: Q01DX009 (ip), vehicle: Klucel (hydroxypropylcellulose) (HPC)",6 of 6
Cc1nc2c(nc1C)C(=O)C=CC2=O,survivor count,"dose: 40.0 mg/kg/injection, schedule: Q01DX001 (ip), vehicle: carboxymethylcellulose (CMC)",2 of 4
same,survivor count,[1],1 of 4
same,survivor count,"dose: 80.0 mg/kg/injection, schedule: Q01DX001 (ip), vehicle: carboxymethylcellulose (CMC)",0 of 4
same,survivor count,"dose: 100.0 mg/kg/injection, schedule: Q01DX001 (ip), vehicle: carboxymethylcellulose (CMC)",2 of 4
same,survivor count,"dose: 200.0 mg/kg/injection, schedule: Q01DX001 (ip), vehicle: carboxymethylcellulose (CMC)",0 of 4
same,survivor count,"dose: 400.0 mg/kg/injection, schedule: Q01DX001 (ip), vehicle: carboxymethylcellulose (CMC)",0 of 4
CC12CCC(=O)C=C1CCCC2=O (stereo not drawn),survivor count,[8],0 of 6
CC1CC(CN2c3ccccc3Sc3ccccc32)C(C)N1C (stereo not drawn),survivor count,"dose: 50.0 mg/kg/injection, schedule: Q04DX003 (ip), vehicle: acetone",0 of 6
same,survivor count,[3],3 of 6
same,survivor count,"dose: 200.0 mg/kg/injection, schedule: Q04DX003 (ip), vehicle: saline",0 of 6
same,survivor count,[8],0 of 6
CCCCCCCCCCCC(=O)NC(=S)Nc1ccccc1F,survivor count,[11],0 of 6
COC(=O)N1C2C3C(C)=C(C)C2(C)C3(C)S1(=O)=O (stereo not drawn),survivor count,[11],5 of 6
Nc1ccccc1SSc1ccccc1N,survivor count,[7],1 of 3
CC(=O)NS(=O)(=O)c1ccc(NC(=O)c2ccccc2C(=O)O)cc1,survivor count,[10],6 of 6
CCOC(=O)C1=NC=NC1=[N+]=[N-],survivor count,"dose: 40.0 mg/kg/injection, schedule: Q01DX001 (ip), vehicle: saline",0 of 6
same,survivor count,"dose: 80.0 mg/kg/injection, schedule: Q01DX001 (ip), vehicle: saline",0 of 6
c1cc[c]([Sn]([c]2ccccc2)[c]2ccccc2)cc1.c1ccc([Si](c2ccccc2)c2ccccc2)cc1,survivor count,"dose: 25.6 mg/kg/injection, schedule: Q04DX002 (ip), vehicle: saline with Tween-80",3 of 3
CC(=O)Oc1c(C)cc([N+](=O)[O-])cc1[N+](=O)[O-],survivor count,"dose: 100.0 mg/kg/injection, schedule: Q04DX003 (ip), vehicle: Klucel (hydroxypropylcellulose) (HPC)",1 of 6 and 6 of 6
same,survivor count,"dose: 200.0 mg/kg/injection, schedule: Q04DX003 (ip), vehicle: Klucel (hydroxypropylcellulose) (HPC)",0 of 6
same,survivor count,[11],0 of 6
O=c1ccc2ccccc2n1Cc1ccc2ccccc2n1,survivor count,[2],6 of 6
same,survivor count,[4],6 of 6
same,survivor count,[5],0 of 6
C/C=C(\C)C(=O)O,survivor count,"dose: 333.0 mg/kg/injection, schedule: Q01DX Z (ip), vehicle: saline",0 of 6
same,survivor count,"dose: 500.0 mg/kg/injection, schedule: Q01DX Z (ip), vehicle: saline",0 of 6
C/C(=C\Cl)C(=O)O,survivor count,[8],1 of 6
CNc1ccccc1CCc1ccccc1CO,survivor count,"dose: 100.0 mg/kg/injection, schedule: Q04DX002 (ip), vehicle: Klucel (hydroxypropylcellulose) (HPC)",3 of 3
same,survivor count,[6],3 of 3
